Reference: paper PMC5045598

Chains of the proteins cited; added tags and fusions are not shown.
UniProt Q92522: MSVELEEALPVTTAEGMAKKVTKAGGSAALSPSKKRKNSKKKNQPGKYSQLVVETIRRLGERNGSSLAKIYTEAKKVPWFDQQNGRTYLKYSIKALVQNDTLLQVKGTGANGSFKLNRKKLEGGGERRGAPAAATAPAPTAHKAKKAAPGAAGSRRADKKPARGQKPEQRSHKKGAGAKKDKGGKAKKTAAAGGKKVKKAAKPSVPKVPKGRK
UniProt P21127: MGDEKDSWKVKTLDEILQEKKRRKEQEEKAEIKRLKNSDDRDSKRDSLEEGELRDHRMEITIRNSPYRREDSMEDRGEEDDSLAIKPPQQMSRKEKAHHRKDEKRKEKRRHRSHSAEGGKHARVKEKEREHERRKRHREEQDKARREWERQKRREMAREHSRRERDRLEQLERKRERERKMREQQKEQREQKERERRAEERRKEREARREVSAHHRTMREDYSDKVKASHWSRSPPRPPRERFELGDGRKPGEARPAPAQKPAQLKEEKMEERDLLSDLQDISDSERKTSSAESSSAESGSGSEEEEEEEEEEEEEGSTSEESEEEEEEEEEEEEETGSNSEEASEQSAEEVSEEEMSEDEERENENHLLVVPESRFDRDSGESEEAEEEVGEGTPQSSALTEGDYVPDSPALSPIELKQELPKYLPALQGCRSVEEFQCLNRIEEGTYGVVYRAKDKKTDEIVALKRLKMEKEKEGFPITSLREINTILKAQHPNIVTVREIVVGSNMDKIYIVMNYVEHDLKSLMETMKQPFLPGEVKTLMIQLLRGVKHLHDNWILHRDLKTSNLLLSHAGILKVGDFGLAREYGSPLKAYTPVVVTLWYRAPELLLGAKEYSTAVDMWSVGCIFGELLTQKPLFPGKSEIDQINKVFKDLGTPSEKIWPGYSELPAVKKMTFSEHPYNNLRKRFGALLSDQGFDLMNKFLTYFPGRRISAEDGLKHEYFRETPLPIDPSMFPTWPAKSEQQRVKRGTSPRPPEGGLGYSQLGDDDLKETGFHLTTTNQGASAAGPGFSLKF
UniProt Q9HCK8: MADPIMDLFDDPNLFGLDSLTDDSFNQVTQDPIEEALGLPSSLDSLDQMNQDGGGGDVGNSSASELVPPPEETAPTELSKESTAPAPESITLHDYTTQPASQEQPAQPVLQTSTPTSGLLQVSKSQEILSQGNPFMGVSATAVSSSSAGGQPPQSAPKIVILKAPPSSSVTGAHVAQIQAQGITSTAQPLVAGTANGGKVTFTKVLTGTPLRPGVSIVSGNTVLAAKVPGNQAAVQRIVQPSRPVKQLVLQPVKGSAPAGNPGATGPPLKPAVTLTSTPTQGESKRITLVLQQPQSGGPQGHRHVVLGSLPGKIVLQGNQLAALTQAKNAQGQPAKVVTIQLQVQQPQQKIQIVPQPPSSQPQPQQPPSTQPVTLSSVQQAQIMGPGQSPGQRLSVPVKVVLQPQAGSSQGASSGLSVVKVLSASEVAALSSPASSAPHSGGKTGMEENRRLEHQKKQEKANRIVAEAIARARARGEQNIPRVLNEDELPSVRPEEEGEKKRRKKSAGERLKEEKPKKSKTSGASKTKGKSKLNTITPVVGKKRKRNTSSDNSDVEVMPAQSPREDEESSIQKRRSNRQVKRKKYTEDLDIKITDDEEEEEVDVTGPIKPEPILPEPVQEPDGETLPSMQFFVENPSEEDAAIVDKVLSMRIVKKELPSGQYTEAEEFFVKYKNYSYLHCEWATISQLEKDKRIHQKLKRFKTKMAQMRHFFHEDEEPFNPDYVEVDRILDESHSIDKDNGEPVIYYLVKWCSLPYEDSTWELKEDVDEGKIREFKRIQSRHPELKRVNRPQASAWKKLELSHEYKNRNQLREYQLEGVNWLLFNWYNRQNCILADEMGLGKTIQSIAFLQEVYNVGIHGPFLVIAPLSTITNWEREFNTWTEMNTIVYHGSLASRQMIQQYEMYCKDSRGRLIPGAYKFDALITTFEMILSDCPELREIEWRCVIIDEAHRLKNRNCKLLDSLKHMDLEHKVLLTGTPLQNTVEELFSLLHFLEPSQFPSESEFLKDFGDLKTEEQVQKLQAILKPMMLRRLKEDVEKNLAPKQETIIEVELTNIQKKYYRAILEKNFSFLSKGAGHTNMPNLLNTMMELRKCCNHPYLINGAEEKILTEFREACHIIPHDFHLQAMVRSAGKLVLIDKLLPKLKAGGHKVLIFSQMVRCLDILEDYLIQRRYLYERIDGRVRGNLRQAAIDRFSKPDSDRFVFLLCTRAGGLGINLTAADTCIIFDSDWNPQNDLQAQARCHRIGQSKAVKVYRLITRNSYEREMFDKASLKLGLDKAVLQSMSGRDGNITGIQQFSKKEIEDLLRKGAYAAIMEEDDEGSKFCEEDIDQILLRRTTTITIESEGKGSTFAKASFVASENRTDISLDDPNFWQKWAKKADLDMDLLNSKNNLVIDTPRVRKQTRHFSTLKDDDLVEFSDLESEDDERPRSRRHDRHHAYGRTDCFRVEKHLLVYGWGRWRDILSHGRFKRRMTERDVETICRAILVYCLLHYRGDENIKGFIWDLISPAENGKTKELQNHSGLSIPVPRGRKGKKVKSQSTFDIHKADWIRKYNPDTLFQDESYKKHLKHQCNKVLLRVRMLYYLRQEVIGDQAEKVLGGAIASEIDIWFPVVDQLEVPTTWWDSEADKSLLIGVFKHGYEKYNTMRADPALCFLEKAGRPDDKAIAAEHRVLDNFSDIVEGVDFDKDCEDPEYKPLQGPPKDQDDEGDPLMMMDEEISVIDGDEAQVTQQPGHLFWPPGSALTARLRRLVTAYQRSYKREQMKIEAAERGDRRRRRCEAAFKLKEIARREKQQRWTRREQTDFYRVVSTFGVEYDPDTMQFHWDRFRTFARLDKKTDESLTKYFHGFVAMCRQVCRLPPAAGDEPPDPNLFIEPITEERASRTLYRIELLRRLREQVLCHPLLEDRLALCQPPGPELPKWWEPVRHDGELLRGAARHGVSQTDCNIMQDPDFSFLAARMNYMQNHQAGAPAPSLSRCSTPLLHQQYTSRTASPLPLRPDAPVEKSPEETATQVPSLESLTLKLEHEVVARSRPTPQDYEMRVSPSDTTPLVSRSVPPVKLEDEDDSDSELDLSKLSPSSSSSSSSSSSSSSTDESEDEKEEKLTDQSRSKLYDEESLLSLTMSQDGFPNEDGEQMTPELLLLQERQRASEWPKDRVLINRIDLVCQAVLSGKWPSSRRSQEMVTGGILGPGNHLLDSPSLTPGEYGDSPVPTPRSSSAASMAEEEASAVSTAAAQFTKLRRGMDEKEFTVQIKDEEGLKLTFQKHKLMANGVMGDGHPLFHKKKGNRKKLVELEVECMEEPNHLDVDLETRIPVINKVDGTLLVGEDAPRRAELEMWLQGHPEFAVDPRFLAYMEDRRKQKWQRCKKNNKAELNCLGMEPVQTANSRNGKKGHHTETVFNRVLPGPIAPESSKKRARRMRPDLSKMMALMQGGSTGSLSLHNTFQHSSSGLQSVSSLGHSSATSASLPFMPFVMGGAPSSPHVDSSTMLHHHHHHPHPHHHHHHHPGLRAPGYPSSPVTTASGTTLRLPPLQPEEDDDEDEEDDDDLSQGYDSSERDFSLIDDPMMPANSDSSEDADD
UniProt Q08945: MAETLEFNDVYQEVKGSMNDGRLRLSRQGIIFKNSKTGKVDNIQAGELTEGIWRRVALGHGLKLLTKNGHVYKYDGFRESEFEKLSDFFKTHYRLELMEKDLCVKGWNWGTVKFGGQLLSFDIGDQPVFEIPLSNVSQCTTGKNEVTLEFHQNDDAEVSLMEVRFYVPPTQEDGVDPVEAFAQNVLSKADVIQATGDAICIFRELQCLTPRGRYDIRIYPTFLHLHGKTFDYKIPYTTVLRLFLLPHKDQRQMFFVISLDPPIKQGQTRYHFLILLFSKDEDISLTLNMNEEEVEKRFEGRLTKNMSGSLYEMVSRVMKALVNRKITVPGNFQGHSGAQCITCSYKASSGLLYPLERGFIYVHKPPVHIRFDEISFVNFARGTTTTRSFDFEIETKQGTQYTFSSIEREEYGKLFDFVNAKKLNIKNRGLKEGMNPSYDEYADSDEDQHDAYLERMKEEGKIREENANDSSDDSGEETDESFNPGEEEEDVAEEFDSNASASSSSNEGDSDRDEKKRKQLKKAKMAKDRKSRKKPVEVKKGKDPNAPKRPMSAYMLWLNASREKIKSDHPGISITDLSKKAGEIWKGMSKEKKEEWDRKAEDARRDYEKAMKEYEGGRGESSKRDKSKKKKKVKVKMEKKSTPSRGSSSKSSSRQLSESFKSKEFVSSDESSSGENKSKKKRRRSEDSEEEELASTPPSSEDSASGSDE
UniProt P67809: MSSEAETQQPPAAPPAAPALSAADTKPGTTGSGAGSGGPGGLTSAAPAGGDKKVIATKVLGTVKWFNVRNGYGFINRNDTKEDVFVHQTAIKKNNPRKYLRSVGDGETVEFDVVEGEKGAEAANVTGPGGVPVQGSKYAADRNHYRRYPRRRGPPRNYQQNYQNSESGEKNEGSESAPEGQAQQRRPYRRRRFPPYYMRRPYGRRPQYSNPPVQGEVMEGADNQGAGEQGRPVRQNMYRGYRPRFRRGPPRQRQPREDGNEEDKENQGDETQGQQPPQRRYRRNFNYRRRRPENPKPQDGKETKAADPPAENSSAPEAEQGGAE
UniProt Q5T200: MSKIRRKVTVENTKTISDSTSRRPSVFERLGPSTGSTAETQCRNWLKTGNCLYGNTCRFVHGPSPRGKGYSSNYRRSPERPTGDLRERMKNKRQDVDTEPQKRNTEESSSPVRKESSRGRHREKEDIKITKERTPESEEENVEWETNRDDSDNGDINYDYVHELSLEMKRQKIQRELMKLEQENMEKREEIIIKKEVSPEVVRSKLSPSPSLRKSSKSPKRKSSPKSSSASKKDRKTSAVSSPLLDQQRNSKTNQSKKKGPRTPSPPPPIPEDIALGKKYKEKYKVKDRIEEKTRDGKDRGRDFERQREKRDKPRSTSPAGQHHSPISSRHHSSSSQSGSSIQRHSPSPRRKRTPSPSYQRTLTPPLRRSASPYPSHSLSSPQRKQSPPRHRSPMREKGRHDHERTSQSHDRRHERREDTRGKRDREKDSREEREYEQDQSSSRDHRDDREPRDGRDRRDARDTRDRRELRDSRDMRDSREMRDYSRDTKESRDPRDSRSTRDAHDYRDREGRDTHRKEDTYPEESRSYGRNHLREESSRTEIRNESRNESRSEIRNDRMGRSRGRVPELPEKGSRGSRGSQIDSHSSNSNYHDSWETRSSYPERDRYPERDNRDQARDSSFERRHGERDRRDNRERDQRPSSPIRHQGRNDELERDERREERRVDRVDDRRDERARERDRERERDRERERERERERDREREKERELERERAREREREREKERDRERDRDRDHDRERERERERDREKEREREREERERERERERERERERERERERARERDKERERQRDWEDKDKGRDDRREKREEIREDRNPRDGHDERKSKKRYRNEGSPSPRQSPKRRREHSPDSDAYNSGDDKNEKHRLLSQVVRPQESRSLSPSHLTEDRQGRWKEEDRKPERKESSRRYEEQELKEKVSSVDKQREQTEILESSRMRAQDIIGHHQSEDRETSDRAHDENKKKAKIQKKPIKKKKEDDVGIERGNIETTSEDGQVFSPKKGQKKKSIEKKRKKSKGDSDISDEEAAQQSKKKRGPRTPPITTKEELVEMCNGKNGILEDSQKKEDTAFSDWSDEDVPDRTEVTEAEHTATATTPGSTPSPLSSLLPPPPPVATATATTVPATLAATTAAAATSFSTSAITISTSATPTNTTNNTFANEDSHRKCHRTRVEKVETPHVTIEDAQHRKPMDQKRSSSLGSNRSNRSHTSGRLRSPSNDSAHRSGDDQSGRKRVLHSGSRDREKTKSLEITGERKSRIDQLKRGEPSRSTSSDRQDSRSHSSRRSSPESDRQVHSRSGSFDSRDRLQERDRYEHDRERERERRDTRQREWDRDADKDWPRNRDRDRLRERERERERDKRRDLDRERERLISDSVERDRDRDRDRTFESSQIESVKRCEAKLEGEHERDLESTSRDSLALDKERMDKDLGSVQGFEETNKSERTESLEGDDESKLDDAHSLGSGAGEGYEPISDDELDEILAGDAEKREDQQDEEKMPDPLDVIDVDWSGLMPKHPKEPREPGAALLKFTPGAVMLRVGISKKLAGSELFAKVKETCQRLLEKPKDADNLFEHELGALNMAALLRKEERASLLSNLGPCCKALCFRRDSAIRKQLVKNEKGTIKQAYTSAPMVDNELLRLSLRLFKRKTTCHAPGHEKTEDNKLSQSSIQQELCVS
UniProt P06748: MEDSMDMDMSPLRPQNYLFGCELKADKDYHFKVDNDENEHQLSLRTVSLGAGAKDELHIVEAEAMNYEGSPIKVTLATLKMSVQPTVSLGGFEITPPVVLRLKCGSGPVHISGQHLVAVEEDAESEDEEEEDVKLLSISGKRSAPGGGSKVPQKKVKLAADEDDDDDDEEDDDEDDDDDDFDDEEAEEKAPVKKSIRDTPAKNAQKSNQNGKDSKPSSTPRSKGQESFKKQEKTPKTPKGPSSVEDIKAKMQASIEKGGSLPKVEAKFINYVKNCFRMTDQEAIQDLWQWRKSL

B1: RNaseP subunit POP1 (protein, UniProt Q99575 1-1024)
chain: MSNAKERKHAKKMRNQPTNVTLSSGFVADRGVKHHSGGEKPFQAQKQEPHPGTSRQRQTRVNPHSLPDPEVNEQSSSKGMFRKKGGWKAGPEGTSQEIPKYITASTFAQARAAEISAMLKAVTQKSSNSLVFQTLPRHMRRRAMSHNVKRLPRRLQEIAQKEAEKAVHQKKEHSKNKCHKARRCHMNRTLEFNRRQKKNIWLETHIWHAKRFHMVKKWGYCLGERPTVKSHRACYRAMTNRCLLQDLSYYCCLELKGKEEEILKALSGMCNIDTGLTFAAVHCLSGKRQGSLVLYRVNKYPREMLGPVTFIWKSQRTPGDPSESRQLWIWLHPTLKQDILEEIKAACQCVEPIKSAVCIADPLPTPSQEKSQTELPDEKIGKKRKRKDDGENAKPIKKIIGDGTRDPCLPYSWISPTTGIIISDLTMEMNRFRLIGPLSHSILTEAIKAASVHTVGEDTEETPHRWWIETCKKPDSVSLHCRQEAIFELLGGITSPAEIPAGTILGLTVGDPRINLPQKKSKALPNPEKCQDNEKVRQLLLEGVPVECTHSFIWNQDICKSVTENKISDQDLNRMRSELLVPGSQLILGPHESKIPILLIQQPGKVTGEDRLGWGSGWDVLLPKGWGMAFWIPFIYRGVRVGGLKESAVHSQYKRSPNVPGDFPDCPAGMLFAEEQAKNLLEKYKRRPPAKRPNYVKLGTLAPFCCPWEQLTQDWESRVQAYEEPSVASSPNGKESDLRRSEVPCAPMPKKTHQPSDEVGTSIEHPREAEEVMDAGCQESAGPERITDQEASENHVAATGSHLCVLRSRKLLKQLSAWCGPSSEDSRGGRRAPGRGQQGLTREACLSILGHFPRALVWVSLSLLSKGSPEPHTMICVPAKEDFLQLHEDWHYCGPQESKHSDPFRSKILKQKEKKKREKRQKPGRASSDGPAGEEPVAGQEALTLGLWSGPLPRVTLHCSRTLLGFVTQGDFSMAVGCGEALGFVSLTGLLDMLSSQPAAQRGLVLLRPPASLQYRFARIAIEV
B2: NDE1 (protein, UniProt Q9NXR1 1-335)
chain: MEDSGKTFSSEEEEANYWKDLAMTYKQRAENTQEELREFQEGSREYEAELETQLQQIETRNRDLLSENNRLRMELETIKEKFEVQHSEGYRQISALEDDLAQTKAIKDQLQKYIRELEQANDDLERAKRATIMSLEDFEQRLNQAIERNAFLESELDEKENLLESVQRLKDEARDLRQELAVQQKQEKPRTPMPSSVEAERTDTAVQATGSVPSTPIAHRGPSSSLNTPGSFRRGLDDSTGGTPLTPAARISALNIVGDLLRKVGALESKLASCRNLVYDQSPNRTGGPASGRSSKNRDGGERRPSSTSVPLGDKGLDTSCRWLSKSTTRSSSSC
B3: ubiquitin carboxyl-terminal hydrolase 15 (USP15) (protein, UniProt Q9Y4E8 1-981)
chain: MAEGGAADLDTQRSDIATLLKTSLRKGDTWYLVDSRWFKQWKKYVGFDSWDKYQMGDQNVYPGPIDNSGLLKDGDAQSLKEHLIDELDYILLPTEGWNKLVSWYTLMEGQEPIARKVVEQGMFVKHCKVEVYLTELKLCENGNMNNVVTRRFSKADTIDTIEKEIRKIFSIPDEKETRLWNKYMSNTFEPLNKPDSTIQDAGLYQGQVLVIEQKNEDGTWPRGPSTPKSPGASNFSTLPKISPSSLSNNYNNMNNRNVKNSNYCLPSYTAYKNYDYSEPGRNNEQPGLCGLSNLGNTCFMNSAIQCLSNTPPLTEYFLNDKYQEELNFDNPLGMRGEIAKSYAELIKQMWSGKFSYVTPRAFKTQVGRFAPQFSGYQQQDCQELLAFLLDGLHEDLNRIRKKPYIQLKDADGRPDKVVAEEAWENHLKRNDSIIVDIFHGLFKSTLVCPECAKISVTFDPFCYLTLPLPMKKERTLEVYLVRMDPLTKPMQYKVVVPKIGNILDLCTALSALSGIPADKMIVTDIYNHRFHRIFAMDENLSSIMERDDIYVFEININRTEDTEHVIIPVCLREKFRHSSYTHHTGSSLFGQPFLMAVPRNNTEDKLYNLLLLRMCRYVKISTETEETEGSLHCCKDQNINGNGPNGIHEEGSPSEMETDEPDDESSQDQELPSENENSQSEDSVGGDNDSENGLCTEDTCKGQLTGHKKRLFTFQFNNLGNTDINYIKDDTRHIRFDDRQLRLDERSFLALDWDPDLKKRYFDENAAEDFEKHESVEYKPPKKPFVKLKDCIELFTTKEKLGAEDPWYCPNCKEHQQATKKLDLWSLPPVLVVHLKRFSYSRYMRDKLDTLVDFPINDLDMSEFLINPNAGPCRYNLIAVSNHYGGMGGGHYTAFAKNKDDGKWYYFDDSSVSTASEDQIVSKAAYVLFYQRQDTFSGTGFFPLDRETKGASAATGIPLESDEDSNDNDNDIENENCMHTN
B4: SRSF3 (protein, UniProt P84103 1-164)
chain: MHRDSCPLDCKVYVGNLGNNGNKTELERAFGYYGPLRSVWVARNPPGFAFVEFEDPRDAADAVRELDGRTLCGCRVRVELSNGEKRSRNRGPPPSWGRRPRDDYRRRSPPPRRRSPRRRSFSRSRSRSLSRDRRRERSLSRERNHKPSRSFSRSRSRSRSNERK
B5: SRSF7 (protein, UniProt Q16629 1-238)
chain: MSRYGRYGGETKVYVGNLGTGAGKGELERAFSYYGPLRTVWIARNPPGFAFVEFEDPRDAEDAVRGLDGKVICGSRVRVELSTGMPRRSRFDRPPARRPFDPNDRCYECGEKGHYAYDCHRYSRRRRSRSRSRSHSRSRGRRYSRSRSRSRGRRSRSASPRRSRSISLRRSRSASLRRSRSGSIKGSRYFQSPSRSRSRSRSISRPRSSRSKSRSPSPKRSRSPSGSPRRSASPERMD
B6: anti-microbial protein dermcidin (protein, UniProt P81605 20-110)
chain: YDPEAASAPGSGNPCHEASAAQKENAGEDPGLARQAPKPRKQRSSLLEKGLDGAKKAVGGLGKLGKDAVEDLESVGKGAVHDVKDVLDSVL

Key:
Experiment in all cases: affinity purification with mass spectrometry; 6 × His-tagged H1 variant from doxycycline-induced U2OS soluble whole cell extract (NP40 lysis buffer: 150 mM NaCl, 50 mM Tris pH7.5, 10 % glycerol, 0.75 % NP40); Mono Q column, then Ni2+ chelating column (wash 50 mM imidazole, elution 500 mM imidazole); peak fractions by LC-MS/MS in duplicate; mock purification from untransfected U2OS Tet/On cells as negative control; H1.1 eluted in two Mono Q peaks, each purified separately
[1] = biological target: 6 × His-tagged histone H1x (human) (UniProt Q92522)
[2] = biological target: 6 × His-tagged histone H1.2 (human) (UniProt P16403)
[3] = biological target: 6 × His-tagged histone H1.1 (human) (UniProt Q02539)
[4] = biological target: 6 × His-tagged histone H1.1 (human) (UniProt Q02539); remark: listed apart in the source
[5] = biological target: 6 × His-tagged histone H1x (human) (UniProt Q92522); remark: listed apart in the source

Row | Molecule | binding [1] | binding [2] | binding [3] | binding [4] | binding [5]
1 | CDK11b (from UniProt P21127 1-795) | binds | binds | binds |  | 
2 | CHD7 (from UniProt Q9P2D1 1-2997) |  | binds |  |  | 
3 | CHD8 (from UniProt Q9HCK8 1-2581) | no binding | binds | binds |  | 
4 | DDX21 (from UniProt Q9NR30 1-783) |  | binds |  |  | 
5 | NASP (nuclear antigenic sperm protein) (from UniProt P49321 1-788) | no binding | no binding | no binding |  | 
6 | PABP1 (from UniProt P11940 1-636) |  |  | binds |  | 
7 | PABP3 (from UniProt Q9H361 1-631) |  |  | binds |  | 
8 | SET (from UniProt Q01105 1-290) |  |  | binds |  | 
9 | SSRP subunit of the FACT complex (from UniProt Q08945 1-709) | binds | binds | binds |  | 
10 | Spt16, second subunit of FACT (from UniProt Q9Y5B9 1-1047) |  |  | binds |  | 
11 | TAF5 (from UniProt Q15542 1-800) |  | binds |  |  | 
12 | TIF1B (from UniProt Q13263 1-835) |  | binds |  |  | 
13 | VIR (virilizer homolog) (from UniProt Q69YN4 1-1812) | binds | binds | binds |  | 
14 | Y box-binding protein YB2 (from UniProt Q9Y2T7 1-364) | binds | binds | binds |  | 
15 | YBX1 (from UniProt P67809 1-324) | binds | binds | binds |  | 
16 | ZC3H13 (from UniProt Q5T200 1-1668) | binds | binds | binds |  | 
17 | insulin-like growth factor 2 mRNA-binding protein 3 (IGF2BP3) (from UniProt O00425 1-579) | binds |  |  |  | 
18 | nuclear pore complex protein Tpr (translocated promoter region) (from UniProt P12270 1-2363) |  | binds | binds |  | 
19 | nucleophosmin (NPM1) (from UniProt P06748 1-294) | binds | binds | binds |  | 
20 | protein VPRBP (also known as DDB1-CUL4-associated factor 1, DCAF1) (from UniProt Q9Y4B6 1-1507) |  | binds |  |  | 
21 | ubiquitin hydrolase UBP34 (from UniProt Q70CQ2 1-3546) | binds | binds | binds |  | 
22 | zinc finger protein ZNF16 (from UniProt P17020 1-682) | binds |  | binds |  | 
23 | B1 |  |  |  | binds | 
24 | B2 |  |  |  | binds | 
25 | B3 |  |  |  |  | binds
26 | B4 |  |  |  | binds | binds
27 | B5 |  |  |  | binds | binds
28 | B6 |  |  |  | binds | binds

Read-outs that look alike come from different tables or passages of the source. These are yes or no findings as the source states them, for the method shown. In cells and extracts the contact can be indirect. A yes stands for co-enrichment or nearness to the bait. Other partners may have been found. For some assays here: No binding means not detected with the bait.
